# Reference: the supplement of paper PMC6411743
# Sequences of proteins named here, by UniProt entry; tags and fusion partners are left off. A change or cut given only in a name is not applied to a line headed by its entry.
# UniProt P06493, whole entry, looked up: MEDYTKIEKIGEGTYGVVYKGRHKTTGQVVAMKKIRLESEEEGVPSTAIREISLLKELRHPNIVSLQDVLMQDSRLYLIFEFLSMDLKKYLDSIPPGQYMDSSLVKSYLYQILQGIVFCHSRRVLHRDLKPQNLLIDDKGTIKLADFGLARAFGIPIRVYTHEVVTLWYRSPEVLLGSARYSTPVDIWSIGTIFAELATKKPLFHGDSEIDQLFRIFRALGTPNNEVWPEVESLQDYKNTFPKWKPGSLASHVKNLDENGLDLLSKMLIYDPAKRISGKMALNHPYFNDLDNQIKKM
# UniProt Q9NVX7: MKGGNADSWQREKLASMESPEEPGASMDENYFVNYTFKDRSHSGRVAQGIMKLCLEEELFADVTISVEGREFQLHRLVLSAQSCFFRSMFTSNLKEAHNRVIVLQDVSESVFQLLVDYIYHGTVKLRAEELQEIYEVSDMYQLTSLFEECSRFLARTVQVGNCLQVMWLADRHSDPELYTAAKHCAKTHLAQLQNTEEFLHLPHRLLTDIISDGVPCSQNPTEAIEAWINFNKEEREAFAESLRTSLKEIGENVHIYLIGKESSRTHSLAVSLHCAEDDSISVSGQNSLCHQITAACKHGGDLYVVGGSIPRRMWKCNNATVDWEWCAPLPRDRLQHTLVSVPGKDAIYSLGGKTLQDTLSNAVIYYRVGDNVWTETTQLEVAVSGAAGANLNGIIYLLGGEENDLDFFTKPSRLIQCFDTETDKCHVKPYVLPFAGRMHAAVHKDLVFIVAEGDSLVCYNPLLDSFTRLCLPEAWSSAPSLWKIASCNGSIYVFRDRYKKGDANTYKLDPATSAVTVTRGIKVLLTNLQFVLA
# UniProt Q9NZM3: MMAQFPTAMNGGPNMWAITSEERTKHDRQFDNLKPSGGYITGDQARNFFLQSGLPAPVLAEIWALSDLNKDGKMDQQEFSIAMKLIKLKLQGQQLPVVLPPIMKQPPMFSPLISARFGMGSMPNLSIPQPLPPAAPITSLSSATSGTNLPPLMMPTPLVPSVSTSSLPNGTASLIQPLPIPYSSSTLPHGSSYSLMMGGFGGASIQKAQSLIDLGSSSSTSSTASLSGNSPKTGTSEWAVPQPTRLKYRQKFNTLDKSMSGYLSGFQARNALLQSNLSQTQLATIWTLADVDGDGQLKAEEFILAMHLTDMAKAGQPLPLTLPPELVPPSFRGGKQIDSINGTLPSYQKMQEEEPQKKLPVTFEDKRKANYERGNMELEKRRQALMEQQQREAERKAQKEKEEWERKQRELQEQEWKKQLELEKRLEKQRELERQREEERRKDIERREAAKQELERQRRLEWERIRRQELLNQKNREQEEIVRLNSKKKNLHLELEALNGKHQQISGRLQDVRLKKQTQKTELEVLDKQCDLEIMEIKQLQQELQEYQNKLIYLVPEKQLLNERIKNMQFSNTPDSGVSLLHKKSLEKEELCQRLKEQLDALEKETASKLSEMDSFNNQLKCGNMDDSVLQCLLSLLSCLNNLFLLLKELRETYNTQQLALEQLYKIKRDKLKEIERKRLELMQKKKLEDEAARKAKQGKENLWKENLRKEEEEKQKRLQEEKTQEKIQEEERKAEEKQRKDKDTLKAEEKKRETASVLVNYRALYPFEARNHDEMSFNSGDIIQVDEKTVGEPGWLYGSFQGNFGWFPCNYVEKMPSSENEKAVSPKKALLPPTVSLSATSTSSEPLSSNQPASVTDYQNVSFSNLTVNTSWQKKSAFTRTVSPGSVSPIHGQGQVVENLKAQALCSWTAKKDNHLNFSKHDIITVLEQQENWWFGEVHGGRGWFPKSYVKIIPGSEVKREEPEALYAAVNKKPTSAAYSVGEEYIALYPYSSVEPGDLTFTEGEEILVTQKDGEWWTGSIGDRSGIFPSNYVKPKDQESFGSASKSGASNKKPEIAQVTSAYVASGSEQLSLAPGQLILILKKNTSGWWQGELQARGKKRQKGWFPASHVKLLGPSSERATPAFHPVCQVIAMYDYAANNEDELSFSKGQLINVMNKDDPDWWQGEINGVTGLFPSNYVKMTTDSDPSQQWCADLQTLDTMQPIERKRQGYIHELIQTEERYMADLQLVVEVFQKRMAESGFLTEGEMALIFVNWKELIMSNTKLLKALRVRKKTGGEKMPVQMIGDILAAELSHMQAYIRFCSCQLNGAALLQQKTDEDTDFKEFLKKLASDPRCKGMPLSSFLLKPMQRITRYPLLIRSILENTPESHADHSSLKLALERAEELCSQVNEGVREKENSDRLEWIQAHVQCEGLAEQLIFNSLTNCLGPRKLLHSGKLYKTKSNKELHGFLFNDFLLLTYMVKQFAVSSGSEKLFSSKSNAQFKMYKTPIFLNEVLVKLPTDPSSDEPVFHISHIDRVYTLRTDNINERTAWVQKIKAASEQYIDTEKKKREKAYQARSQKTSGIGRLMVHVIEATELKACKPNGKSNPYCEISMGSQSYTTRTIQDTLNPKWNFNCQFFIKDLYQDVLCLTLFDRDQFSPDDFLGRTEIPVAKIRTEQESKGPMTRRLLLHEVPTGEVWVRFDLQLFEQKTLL
# UniProt Q969K3: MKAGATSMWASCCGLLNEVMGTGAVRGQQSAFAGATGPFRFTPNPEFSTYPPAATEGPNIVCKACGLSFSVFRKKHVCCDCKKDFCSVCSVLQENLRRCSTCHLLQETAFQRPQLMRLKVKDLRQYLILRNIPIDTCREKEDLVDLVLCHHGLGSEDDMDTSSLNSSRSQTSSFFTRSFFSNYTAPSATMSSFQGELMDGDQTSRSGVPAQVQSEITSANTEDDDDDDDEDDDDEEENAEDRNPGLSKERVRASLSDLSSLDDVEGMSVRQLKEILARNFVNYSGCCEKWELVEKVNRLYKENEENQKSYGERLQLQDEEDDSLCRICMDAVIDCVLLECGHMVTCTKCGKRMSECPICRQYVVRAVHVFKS
# UniProt P46379: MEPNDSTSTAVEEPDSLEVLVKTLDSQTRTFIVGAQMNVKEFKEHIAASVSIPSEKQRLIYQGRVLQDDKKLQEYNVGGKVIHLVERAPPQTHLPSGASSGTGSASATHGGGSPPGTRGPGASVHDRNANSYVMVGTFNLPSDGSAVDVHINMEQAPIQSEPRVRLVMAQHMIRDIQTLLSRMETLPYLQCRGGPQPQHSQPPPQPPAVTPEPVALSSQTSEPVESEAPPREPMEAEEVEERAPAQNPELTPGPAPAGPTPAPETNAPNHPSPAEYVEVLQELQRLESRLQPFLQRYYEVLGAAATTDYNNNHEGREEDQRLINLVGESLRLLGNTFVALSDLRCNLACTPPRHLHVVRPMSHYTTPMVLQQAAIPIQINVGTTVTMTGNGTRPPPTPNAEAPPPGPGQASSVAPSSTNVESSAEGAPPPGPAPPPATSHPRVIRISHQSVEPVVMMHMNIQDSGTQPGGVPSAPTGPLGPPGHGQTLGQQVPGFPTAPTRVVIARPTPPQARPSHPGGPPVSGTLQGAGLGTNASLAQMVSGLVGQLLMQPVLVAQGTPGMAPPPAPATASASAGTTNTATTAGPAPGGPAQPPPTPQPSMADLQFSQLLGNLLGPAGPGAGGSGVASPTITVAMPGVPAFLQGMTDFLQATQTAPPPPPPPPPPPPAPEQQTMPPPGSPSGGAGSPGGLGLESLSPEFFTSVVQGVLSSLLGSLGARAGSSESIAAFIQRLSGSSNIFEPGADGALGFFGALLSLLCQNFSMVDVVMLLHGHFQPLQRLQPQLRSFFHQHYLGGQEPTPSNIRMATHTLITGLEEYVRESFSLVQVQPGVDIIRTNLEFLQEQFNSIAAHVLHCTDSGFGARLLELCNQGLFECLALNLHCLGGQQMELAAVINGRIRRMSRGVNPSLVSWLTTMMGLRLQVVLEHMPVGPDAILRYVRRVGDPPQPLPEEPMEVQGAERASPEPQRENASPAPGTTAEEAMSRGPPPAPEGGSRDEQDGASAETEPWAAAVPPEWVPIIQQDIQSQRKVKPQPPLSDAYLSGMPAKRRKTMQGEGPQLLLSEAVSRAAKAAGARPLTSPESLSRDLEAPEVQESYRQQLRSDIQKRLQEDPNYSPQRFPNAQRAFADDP
# UniProt P0C1Z6, whole entry: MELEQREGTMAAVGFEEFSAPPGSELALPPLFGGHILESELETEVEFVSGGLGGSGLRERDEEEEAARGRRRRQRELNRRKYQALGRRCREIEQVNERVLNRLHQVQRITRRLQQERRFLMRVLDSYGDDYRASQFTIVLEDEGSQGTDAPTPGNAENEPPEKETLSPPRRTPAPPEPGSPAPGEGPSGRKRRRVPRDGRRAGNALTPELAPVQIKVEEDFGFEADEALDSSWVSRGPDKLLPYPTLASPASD
# UniProt O60841: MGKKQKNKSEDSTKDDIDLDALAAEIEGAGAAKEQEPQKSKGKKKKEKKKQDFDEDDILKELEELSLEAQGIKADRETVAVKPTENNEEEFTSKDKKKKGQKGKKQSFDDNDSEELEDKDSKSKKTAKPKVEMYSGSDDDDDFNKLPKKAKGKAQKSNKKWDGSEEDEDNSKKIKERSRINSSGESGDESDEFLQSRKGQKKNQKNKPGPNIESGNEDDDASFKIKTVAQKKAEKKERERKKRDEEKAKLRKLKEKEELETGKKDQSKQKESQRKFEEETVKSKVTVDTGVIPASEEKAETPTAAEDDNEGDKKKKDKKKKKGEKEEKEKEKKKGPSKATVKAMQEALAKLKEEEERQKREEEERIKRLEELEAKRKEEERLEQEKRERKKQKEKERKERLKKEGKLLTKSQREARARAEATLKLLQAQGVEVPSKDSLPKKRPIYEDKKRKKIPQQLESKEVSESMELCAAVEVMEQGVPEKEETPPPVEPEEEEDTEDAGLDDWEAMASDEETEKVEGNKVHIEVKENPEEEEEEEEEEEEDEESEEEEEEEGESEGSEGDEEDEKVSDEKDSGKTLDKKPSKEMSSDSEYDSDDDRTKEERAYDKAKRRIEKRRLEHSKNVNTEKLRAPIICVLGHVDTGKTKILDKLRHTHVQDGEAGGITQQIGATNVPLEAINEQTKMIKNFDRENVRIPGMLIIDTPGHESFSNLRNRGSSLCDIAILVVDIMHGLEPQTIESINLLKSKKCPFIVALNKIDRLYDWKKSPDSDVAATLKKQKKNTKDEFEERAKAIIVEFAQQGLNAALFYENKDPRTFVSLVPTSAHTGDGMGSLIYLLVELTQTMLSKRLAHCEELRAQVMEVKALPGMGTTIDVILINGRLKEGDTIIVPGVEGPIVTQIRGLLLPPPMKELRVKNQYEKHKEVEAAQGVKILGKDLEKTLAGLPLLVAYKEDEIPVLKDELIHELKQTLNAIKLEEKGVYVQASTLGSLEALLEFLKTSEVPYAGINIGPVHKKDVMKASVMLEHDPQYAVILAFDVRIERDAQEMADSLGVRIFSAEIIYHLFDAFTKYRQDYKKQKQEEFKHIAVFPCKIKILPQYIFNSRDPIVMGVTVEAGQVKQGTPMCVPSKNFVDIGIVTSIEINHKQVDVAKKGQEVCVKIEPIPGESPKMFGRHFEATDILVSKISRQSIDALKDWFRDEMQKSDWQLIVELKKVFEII
# UniProt Q9Y2Z4: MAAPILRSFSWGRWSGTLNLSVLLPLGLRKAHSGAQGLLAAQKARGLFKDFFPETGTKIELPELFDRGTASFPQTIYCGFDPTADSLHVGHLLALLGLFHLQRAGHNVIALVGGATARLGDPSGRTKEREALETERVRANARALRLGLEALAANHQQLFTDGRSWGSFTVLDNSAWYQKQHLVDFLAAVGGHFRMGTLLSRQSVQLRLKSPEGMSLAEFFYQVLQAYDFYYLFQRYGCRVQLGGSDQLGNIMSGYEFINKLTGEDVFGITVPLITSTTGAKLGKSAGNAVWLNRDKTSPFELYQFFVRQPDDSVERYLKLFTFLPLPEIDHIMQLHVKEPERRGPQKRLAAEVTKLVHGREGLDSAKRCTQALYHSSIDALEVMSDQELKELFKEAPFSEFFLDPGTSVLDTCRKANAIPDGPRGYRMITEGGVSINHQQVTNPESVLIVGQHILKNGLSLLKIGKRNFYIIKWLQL
# UniProt Q92504: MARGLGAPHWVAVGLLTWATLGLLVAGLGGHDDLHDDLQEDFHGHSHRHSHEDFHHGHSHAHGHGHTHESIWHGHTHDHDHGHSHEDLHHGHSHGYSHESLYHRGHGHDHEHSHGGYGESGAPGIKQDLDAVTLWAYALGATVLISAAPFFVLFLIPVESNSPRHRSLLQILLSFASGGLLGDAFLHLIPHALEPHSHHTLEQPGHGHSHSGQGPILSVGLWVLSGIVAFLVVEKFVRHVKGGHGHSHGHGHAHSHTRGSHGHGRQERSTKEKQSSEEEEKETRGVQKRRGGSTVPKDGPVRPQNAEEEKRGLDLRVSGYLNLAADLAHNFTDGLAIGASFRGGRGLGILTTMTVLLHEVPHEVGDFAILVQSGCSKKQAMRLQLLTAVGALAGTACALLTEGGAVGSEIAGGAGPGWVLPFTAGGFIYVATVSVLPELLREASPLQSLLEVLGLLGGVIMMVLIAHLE
# ± gives the standard deviation of the averaged measurements. The entries are a selection whose mix differs from that of the whole data set. This is one part of the list.
# How the values were obtained:
# [1] = compound: Nc1ncnc2c1ncn2[C@@H]1O[C@H](COP(=O)(O)OP(=O)(O)NP(=O)(O)O)[C@@H](O)[C@H]1O [adenylyl imidodiphosphate]; test: NP40-soluble protein abundance relative to vehicle (solubility fold change) (ratio); higher = more soluble protein in presence of AMP-PNP
# Outline: (§1)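 Values are fold changes against the detergent-processed vehicle, based on vsn-normalised intensities. Jurkat crude lysate was treated at eight concentrations from 0.1 to 10 mM (10 min at room temperature, then 3 min at 37 °C), solubilised with 0.8% NP40 and benzonase, ultracentrifuged and analysed by TMT-labelled LC-MS/MS over three independent experiments.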
# guanosine triphosphate = compound: Nc1nc2c(ncn2[C@@H]2O[C@H](COP(=O)(O)OP(=O)(O)OP(=O)(O)O)[C@@H](O)[C@H]2O)c(=O)[nH]1 [guanosine triphosphate]; test: NP40-soluble protein abundance relative to vehicle (solubility fold change) (ratio); higher = more soluble protein in presence of GTP
# Outline: as §1
target,measurement,setting,value
A0A024QZP7|P06493 (UniProt P06493),NP40-soluble protein abundance,[1]; concentration: 1mM,1.03 ± 0.016
same,NP40-soluble protein abundance,[1]; concentration: 2mM,0.946 ± 0.06
same,NP40-soluble protein abundance,[1]; concentration: 4mM,1.02 ± 0.024
same,NP40-soluble protein abundance,[1]; concentration: 6mM,1.02 ± 0.023
same,NP40-soluble protein abundance,[1]; concentration: 8mM,1.053 ± 0.004
same,NP40-soluble protein abundance,[1]; concentration: 10mM,1 ± 0.015
A0A024R4K9|A0A087WZA9|A0A087X266|Q9BXJ8 and related entries (UniProt Q9BXJ8),NP40-soluble protein abundance,[1]; concentration: 1mM,0.961 ± 0.043
same,NP40-soluble protein abundance,[1]; concentration: 2mM,1.05 ± 0.14
same,NP40-soluble protein abundance,[1]; concentration: 4mM,0.972 ± 0.033
same,NP40-soluble protein abundance,[1]; concentration: 6mM,1.09 ± 0.1
same,NP40-soluble protein abundance,[1]; concentration: 8mM,1.05 ± 0.041
same,NP40-soluble protein abundance,[1]; concentration: 10mM,1.12 ± 0.091
A0A075B6T4|Q9NVX7 and related entries (UniProt Q9NVX7),NP40-soluble protein abundance,[1]; concentration: 1mM,0.988 ± 0.034
same,NP40-soluble protein abundance,[1]; concentration: 2mM,1.03 ± 0.041
same,NP40-soluble protein abundance,[1]; concentration: 4mM,0.962 ± 0.056
same,NP40-soluble protein abundance,[1]; concentration: 6mM,0.956 ± 0.061
same,NP40-soluble protein abundance,[1]; concentration: 8mM,0.981 ± 0.034
same,NP40-soluble protein abundance,[1]; concentration: 10mM,0.941 ± 0.076
A0A087WVF7|Q9NZM3 and related entries (UniProt Q9NZM3),NP40-soluble protein abundance,[1]; concentration: 1mM,1.048 ± 0.0098
same,NP40-soluble protein abundance,[1]; concentration: 2mM,1.09 ± 0.056
same,NP40-soluble protein abundance,[1]; concentration: 4mM,1.05 ± 0.04
same,NP40-soluble protein abundance,[1]; concentration: 6mM,1.06 ± 0.031
same,NP40-soluble protein abundance,[1]; concentration: 8mM,1.01 ± 0.023
same,NP40-soluble protein abundance,[1]; concentration: 10mM,1.07 ± 0.051
A0A087WUU7|Q96GX5 and related entries (UniProt Q96GX5),NP40-soluble protein abundance,[1]; concentration: 1mM,1.01 ± 0.02
same,NP40-soluble protein abundance,[1]; concentration: 2mM,1.07 ± 0.036
same,NP40-soluble protein abundance,[1]; concentration: 4mM,1.01 ± 0.044
same,NP40-soluble protein abundance,[1]; concentration: 6mM,0.976 ± 0.023
same,NP40-soluble protein abundance,[1]; concentration: 8mM,0.967 ± 0.011
same,NP40-soluble protein abundance,[1]; concentration: 10mM,0.991 ± 0.04
A0A087WTM5|H7BYJ1 and related entries (UniProt Q969K3),NP40-soluble protein abundance,[1]; concentration: 1mM,0.928 ± 0.091
same,NP40-soluble protein abundance,[1]; concentration: 2mM,0.914 ± 0.085
same,NP40-soluble protein abundance,[1]; concentration: 4mM,0.915 ± 0.071
same,NP40-soluble protein abundance,[1]; concentration: 6mM,0.914 ± 0.074
same,NP40-soluble protein abundance,[1]; concentration: 8mM,0.924 ± 0.071
same,NP40-soluble protein abundance,[1]; concentration: 10mM,0.926 ± 0.05
A0A024RCR6|A0A0G2JK23|P46379 and related entries (UniProt P46379),NP40-soluble protein abundance,[1]; concentration: 1mM,0.96 ± 0.054
same,NP40-soluble protein abundance,[1]; concentration: 2mM,1.02 ± 0.06
same,NP40-soluble protein abundance,[1]; concentration: 4mM,0.985 ± 0.035
same,NP40-soluble protein abundance,[1]; concentration: 6mM,0.967 ± 0.039
same,NP40-soluble protein abundance,[1]; concentration: 8mM,0.953 ± 0.026
same,NP40-soluble protein abundance,[1]; concentration: 10mM,0.963 ± 0.055
A0A024R4Q5|G5E9B5 and related entries (UniProt P0C1Z6),NP40-soluble protein abundance,[1]; concentration: 1mM,0.969 ± 0.037
same,NP40-soluble protein abundance,[1]; concentration: 2mM,0.994 ± 0.077
same,NP40-soluble protein abundance,[1]; concentration: 4mM,0.993 ± 0.03
same,NP40-soluble protein abundance,[1]; concentration: 6mM,0.974 ± 0.043
same,NP40-soluble protein abundance,[1]; concentration: 8mM,0.999 ± 0.022
same,NP40-soluble protein abundance,[1]; concentration: 10mM,0.98 ± 0.039
A0A087WTU9|A0A087WZY3|Q8TCU4 and related entries (UniProt Q8TCU4),NP40-soluble protein abundance,[1]; concentration: 1mM,0.934 ± 0.032
same,NP40-soluble protein abundance,[1]; concentration: 2mM,1.01 ± 0.084
same,NP40-soluble protein abundance,[1]; concentration: 4mM,0.924 ± 0.08
same,NP40-soluble protein abundance,[1]; concentration: 6mM,1 ± 0.11
same,NP40-soluble protein abundance,[1]; concentration: 8mM,0.904 ± 0.041
same,NP40-soluble protein abundance,[1]; concentration: 10mM,0.996 ± 0.14
A0A087WUT6|O60841 (UniProt O60841),NP40-soluble protein abundance,[1]; concentration: 1mM,1.05 ± 0.012
same,NP40-soluble protein abundance,[1]; concentration: 2mM,1.02 ± 0.018
same,NP40-soluble protein abundance,[1]; concentration: 4mM,1.02 ± 0.017
same,NP40-soluble protein abundance,[1]; concentration: 6mM,1.01 ± 0.033
same,NP40-soluble protein abundance,[1]; concentration: 8mM,1.004 ± 0.0073
same,NP40-soluble protein abundance,[1]; concentration: 10mM,0.997 ± 0.035
A0A087WUS0|E7ETK0 and related entries (UniProt P62847),NP40-soluble protein abundance,[1]; concentration: 1mM,0.98 ± 0.065
same,NP40-soluble protein abundance,[1]; concentration: 2mM,0.965 ± 0.061
same,NP40-soluble protein abundance,[1]; concentration: 4mM,0.912 ± 0.12
same,NP40-soluble protein abundance,[1]; concentration: 6mM,0.936 ± 0.083
same,NP40-soluble protein abundance,[1]; concentration: 8mM,0.892 ± 0.097
same,NP40-soluble protein abundance,[1]; concentration: 10mM,0.939 ± 0.17
A0A024RAC6 (UniProt Q14241),NP40-soluble protein abundance,[1]; concentration: 1mM,1.05 ± 0.014
same,NP40-soluble protein abundance,[1]; concentration: 2mM,1.13 ± 0.076
same,NP40-soluble protein abundance,[1]; concentration: 4mM,1.06 ± 0.029
same,NP40-soluble protein abundance,[1]; concentration: 6mM,1.08 ± 0.044
same,NP40-soluble protein abundance,[1]; concentration: 8mM,1.06 ± 0.022
same,NP40-soluble protein abundance,[1]; concentration: 10mM,1.09 ± 0.019
YARS2 (UniProt Q9Y2Z4),NP40-soluble protein abundance,guanosine triphosphate; concentration: 0.1mM,0.936 ± 0.066
same,NP40-soluble protein abundance,guanosine triphosphate; concentration: 0.5mM,1.02 ± 0.029
same,NP40-soluble protein abundance,guanosine triphosphate; concentration: 1mM,0.867 ± 0.025
same,NP40-soluble protein abundance,guanosine triphosphate; concentration: 2mM,0.949 ± 0.095
same,NP40-soluble protein abundance,guanosine triphosphate; concentration: 4mM,0.884 ± 0.06
same,NP40-soluble protein abundance,guanosine triphosphate; concentration: 6mM,0.942 ± 0.1
same,NP40-soluble protein abundance,guanosine triphosphate; concentration: 8mM,0.811 ± 0.036
same,NP40-soluble protein abundance,guanosine triphosphate; concentration: 10mM,0.885 ± 0.068
A0A075B6F9|Q9Y314 (UniProt Q9Y314),NP40-soluble protein abundance,[1]; concentration: 1mM,1.01 ± 0.036
same,NP40-soluble protein abundance,[1]; concentration: 2mM,1.02 ± 0.05
same,NP40-soluble protein abundance,[1]; concentration: 4mM,1.01 ± 0.017
same,NP40-soluble protein abundance,[1]; concentration: 6mM,1.02 ± 0.033
same,NP40-soluble protein abundance,[1]; concentration: 8mM,1.02 ± 0.032
same,NP40-soluble protein abundance,[1]; concentration: 10mM,1.04 ± 0.049
A0A087WTJ2|Q8WWP7 (UniProt Q8WWP7),NP40-soluble protein abundance,[1]; concentration: 1mM,1.03 ± 0.017
same,NP40-soluble protein abundance,[1]; concentration: 2mM,0.999 ± 0.064
same,NP40-soluble protein abundance,[1]; concentration: 4mM,1.07 ± 0.025
same,NP40-soluble protein abundance,[1]; concentration: 6mM,1.07 ± 0.044
same,NP40-soluble protein abundance,[1]; concentration: 8mM,1.09 ± 0.062
same,NP40-soluble protein abundance,[1]; concentration: 10mM,1.06 ± 0.045
A0A075B746|P82921 (UniProt P82921),NP40-soluble protein abundance,[1]; concentration: 1mM,1.009 ± 0.0094
same,NP40-soluble protein abundance,[1]; concentration: 2mM,0.976 ± 0.046
same,NP40-soluble protein abundance,[1]; concentration: 4mM,0.974 ± 0.043
same,NP40-soluble protein abundance,[1]; concentration: 6mM,0.975 ± 0.012
same,NP40-soluble protein abundance,[1]; concentration: 8mM,0.977 ± 0.043
same,NP40-soluble protein abundance,[1]; concentration: 10mM,0.968 ± 0.087
A0A087WTX2|Q92504 (UniProt Q92504),NP40-soluble protein abundance,[1]; concentration: 1mM,0.972 ± 0.025
same,NP40-soluble protein abundance,[1]; concentration: 2mM,0.9574 ± 0.0066
same,NP40-soluble protein abundance,[1]; concentration: 4mM,0.934 ± 0.059
same,NP40-soluble protein abundance,[1]; concentration: 6mM,0.91 ± 0.012
same,NP40-soluble protein abundance,[1]; concentration: 8mM,0.9224 ± 0.0044
same,NP40-soluble protein abundance,[1]; concentration: 10mM,0.864 ± 0.043

# Random excerpt: four records from the list.
target,measurement,setting,value
A0A087WVF7|Q9NZM3 and related entries (UniProt Q9NZM3),NP40-soluble protein abundance,[1]; concentration: 1mM,1.048 ± 0.0098
A0A087WTM5|H7BYJ1 and related entries (UniProt Q969K3),NP40-soluble protein abundance,[1]; concentration: 10mM,0.926 ± 0.05
A0A075B6T4|Q9NVX7 and related entries (UniProt Q9NVX7),NP40-soluble protein abundance,[1]; concentration: 4mM,0.962 ± 0.056
A0A024QZP7|P06493 (UniProt P06493),NP40-soluble protein abundance,[1]; concentration: 1mM,1.03 ± 0.016
